# No constants are given. Whether binding was seen depends on the method and setting. A result given as binding can be weak or reduced; the word gives no strength.
# The chains behind the UniProt entries cited, without tags or fusion partners. Where a name states a change or a piece, a line headed by the entry shows the natural chain unless it says otherwise. Residues count along the entry.
# UniProt Q4J6C6, residues 90-727: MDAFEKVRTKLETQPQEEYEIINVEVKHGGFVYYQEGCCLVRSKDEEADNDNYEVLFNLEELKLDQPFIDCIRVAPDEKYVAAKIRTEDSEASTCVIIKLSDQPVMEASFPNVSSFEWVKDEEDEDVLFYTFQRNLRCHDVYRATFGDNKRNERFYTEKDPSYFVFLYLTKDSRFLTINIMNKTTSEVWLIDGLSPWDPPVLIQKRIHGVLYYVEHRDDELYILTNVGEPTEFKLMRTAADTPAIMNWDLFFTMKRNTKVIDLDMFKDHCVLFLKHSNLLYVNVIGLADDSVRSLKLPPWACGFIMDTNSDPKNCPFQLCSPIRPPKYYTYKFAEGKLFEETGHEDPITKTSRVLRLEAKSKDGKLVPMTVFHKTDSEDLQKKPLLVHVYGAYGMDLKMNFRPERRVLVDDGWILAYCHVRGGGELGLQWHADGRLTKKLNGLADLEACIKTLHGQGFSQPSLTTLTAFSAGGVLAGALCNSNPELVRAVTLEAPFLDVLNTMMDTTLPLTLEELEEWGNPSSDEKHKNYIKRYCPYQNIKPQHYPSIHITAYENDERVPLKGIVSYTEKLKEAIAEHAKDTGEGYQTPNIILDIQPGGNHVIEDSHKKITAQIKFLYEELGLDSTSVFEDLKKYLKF
# UniProt Q7Z4H4: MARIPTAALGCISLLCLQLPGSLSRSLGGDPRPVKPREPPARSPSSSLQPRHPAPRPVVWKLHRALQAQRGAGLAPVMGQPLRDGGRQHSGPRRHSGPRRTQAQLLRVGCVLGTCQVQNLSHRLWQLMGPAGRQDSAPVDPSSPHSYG
# UniProt Q9BTE1: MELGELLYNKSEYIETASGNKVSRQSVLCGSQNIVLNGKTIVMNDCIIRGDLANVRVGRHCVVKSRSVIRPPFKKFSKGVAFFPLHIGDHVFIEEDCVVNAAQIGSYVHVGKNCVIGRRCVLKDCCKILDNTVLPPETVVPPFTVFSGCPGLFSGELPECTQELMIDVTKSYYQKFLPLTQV
# UniProt P19404, residues 33-249: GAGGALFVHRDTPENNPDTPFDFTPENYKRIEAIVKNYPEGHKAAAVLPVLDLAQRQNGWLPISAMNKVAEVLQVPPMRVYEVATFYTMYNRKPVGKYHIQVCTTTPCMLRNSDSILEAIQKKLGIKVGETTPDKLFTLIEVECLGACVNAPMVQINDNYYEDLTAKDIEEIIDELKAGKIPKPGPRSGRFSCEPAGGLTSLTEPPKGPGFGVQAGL
# UniProt Q15118, residues 29-436: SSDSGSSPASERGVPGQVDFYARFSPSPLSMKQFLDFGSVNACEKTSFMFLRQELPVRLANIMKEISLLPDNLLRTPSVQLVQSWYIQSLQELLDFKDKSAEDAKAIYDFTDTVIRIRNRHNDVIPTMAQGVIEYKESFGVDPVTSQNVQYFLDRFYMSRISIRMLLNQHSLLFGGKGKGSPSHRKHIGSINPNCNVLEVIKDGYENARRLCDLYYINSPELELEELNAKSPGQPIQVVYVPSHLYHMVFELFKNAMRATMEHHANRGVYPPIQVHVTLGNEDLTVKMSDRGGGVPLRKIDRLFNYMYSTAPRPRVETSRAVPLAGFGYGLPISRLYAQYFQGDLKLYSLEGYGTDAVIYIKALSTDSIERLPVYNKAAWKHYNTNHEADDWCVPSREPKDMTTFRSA
# B1: UBL5 (protein, UniProt Q9BZL1 1-73)
# chain: MIEVVCNDRLGKKVRVKCNTDDTIGDLKKLIAAQTGTRWNKIVLKKWYTIFKDHVSLGDYEIHDGMNLELYYQ
# B2: STX5 (protein, UniProt Q13190 1-355)
# chain: MIPRKRYGSKNTDQGVYLGLSKTQVLSPATAGSSSSDIAPLPPPVTLVPPPPDTMSCRDRTQEFLSACKSLQTRQNGIQTNKPALRAVRQRSEFTLMAKRIGKDLSNTFAKLEKLTILAKRKSLFDDKAVEIEELTYIIKQDINSLNKQIAQLQDFVRAKGSQSGRHLQTHSNTIVVSLQSKLASMSNDFKSVLEVRTENLKQQRSRREQFSRAPVSALPLAPNHLGGGAVVLGAESHASKDVAIDMMDSRTSQQLQLIDEQDSYIQSRADTMQNIESTIVELGSIFQQLAHMVKEQEETIQRIDENVLGAQLDVEAAHSEILKYFQSVTSNRWLMVKIFLILIVFFIIFVVFLA
# B3: DISC1 (protein, UniProt Q9NRI5 1-854)
# chain: MPGGGPQGAPAAAGGGGVSHRAGSRDCLPPAACFRRRRLARRPGYMRSSTGPGIGFLSPAVGTLFRFPGGVSGEESHHSESRARQCGLDSRGLLVRSPVSKSAAAPTVTSVRGTSAHFGIQLRGGTRLPDRLSWPCGPGSAGWQQEFAAMDSSETLDASWEAACSDGARRVRAAGSLPSAELSSNSCSPGCGPEVPPTPPGSHSAFTSSFSFIRLSLGSAGERGEAEGCPPSREAESHCQSPQEMGAKAASLDGPHEDPRCLSRPFSLLATRVSADLAQAARNSSRPERDMHSLPDMDPGSSSSLDPSLAGCGGDGSSGSGDAHSWDTLLRKWEPVLRDCLLRNRRQMEVISLRLKLQKLQEDAVENDDYDKAETLQQRLEDLEQEKISLHFQLPSRQPALSSFLGHLAAQVQAALRRGATQQASGDDTHTPLRMEPRLLEPTAQDSLHVSITRRDWLLQEKQQLQKEIEALQARMFVLEAKDQQLRREIEEQEQQLQWQGCDLTPLVGQLSLGQLQEVSKALQDTLASAGQIPFHAEPPETIRSLQERIKSLNLSLKEITTKVCMSEKFCSTLRKKVNDIETQLPALLEAKMHAISGNHFWTAKDLTEEIRSLTSEREGLEGLLSKLLVLSSRNVKKLGSVKEDYNRLRREVEHQETAYETSVKENTMKYMETLKNKLCSCKCPLLGKVWEADLEACRLLIQSLQLQEARGSLSVEDERQMDDLEGAAPPIPPRLHSEDKRKTPLKVLEEWKTHLIPSLHCAGGEQKEESYILSAELGEKCEDIGKKLLYLEDQLHTAIHSHDEDLIQSLRRELQMVKETLQAMILQLQPAKEAGEREAAASCMTAGVHEAQA
# B4: MDM1 (protein, UniProt Q8TC05 1-714)
# chain: MPVRFKGLSEYQRNFLWKKSYLSESCNSSVGRKYPWAGLRSDQLGITKEPSFISKRRVPYHDPQISKSLEWNGAISESNVVASPEPEAPETPKSQEAEQKDVTQERVHSLEASRVPKRTRSHSADSRAEGASDVENNEGVTNHTPVNENVELEHSTKVLSENVDNGLDRLLRKKAGLTVVPSYNALRNSEYQRQFVWKTSKETAPAFAANQVFHNKSQFVPPFKGNSVIHETEYKRNFKGLSPVKEPKLRNDLRENRNLETVSPERKSNKIDDRLKLEAEMELKDLHQPKRKLTPWKHQRLGKVNSEYRAKFLSPAQYLYKAGAWTHVKGNMPNQVKELREKAEFYRKRVQGTHFSRDHLNQILSDSNCCWDVSSTTSSEGTVSSNIRALDLAGDPTSHKTLQKCPSTEPEEKGNIVEEQPQKNTTEKLGVSAPTIPVRRRLAWDTENTSEDVQKQPGEKEEEDDNEEEGDRKTGKQAFMGEQEKLDVREKSKADKMKEGSDSSVSSEKGGRLPTPKLRELGGIQRTHHDLTTPAVGGAVLVSPSKMKPPAPEQRKRMTSQDCLETSKNDFTKKESRAVSLLTSPAAGIKTVDPLPLREDSEDNIHKFAEATLPVSKIPKYPTNPPGQLPSPPHVPSYWHPSRRIQGSLRDPEFQHNVGKARMNNLQLPQHEAFNDEDEDRLSEISARSAASSLRAFQTLARAKKRKENFWGKT
# Key:
# [1] = biological target: PREPL β-propeller domain alone, MAPPIT bait (human) (UniProt Q4J6C6); experiment: two-hybrid; MAPPIT (mammalian protein-protein interaction trap) in HEK293T cells, 96-well; cotransfected with 250 ng bait (PREPLS in pSEL(+2L)), 500 ng prey (pMG1) and 50 ng pXP2d2-rPAP1-luciferase reporter; stimulated with NeoRecormon 5 ng/mL; luciferase measured 24 h after stimulation; normalised to irrelevant bait and irrelevant prey; signals relative to WT PREPL; WT also tested with 50 μM inhibitor 8 (interactions decreased with 8 interactors)
# [2] = biological target: WT PREPL (prolyl endopeptidase-like, PREPLS), MAPPIT bait (human) (UniProt Q4J6C6); experiment: as above
Molecule,binding [1],binding [2]
ADM2 (from UniProt Q7Z4H4),no binding,binds
ARPC5L (from UniProt Q9BPX5 1-153),no binding,
DCTN5 (from UniProt Q9BTE1 1-182),no binding,
NDUFV2 (from UniProt P19404 33-249),binds,
PDK1 (from UniProt Q15118 29-436),no binding,
B1,binds,
B2,no binding,
B3,no binding,
B4,no binding,

# From article PMC11385081
